Assay results: paper PMC10602884, “Distinct RPA functions promote eukaryotic DNA replication initiation and elongation”
No constants are given. Whether binding was seen depends on the method and setting. Some binding calls cover weakened binding; strength is not graded here.

Protein sequences, listed by entry. Tags and fused reporters are not part of them. Lines headed by an entry give the natural chain unless they say otherwise; changes in a name come on top. Residues count along the entry.
UniProt P26754: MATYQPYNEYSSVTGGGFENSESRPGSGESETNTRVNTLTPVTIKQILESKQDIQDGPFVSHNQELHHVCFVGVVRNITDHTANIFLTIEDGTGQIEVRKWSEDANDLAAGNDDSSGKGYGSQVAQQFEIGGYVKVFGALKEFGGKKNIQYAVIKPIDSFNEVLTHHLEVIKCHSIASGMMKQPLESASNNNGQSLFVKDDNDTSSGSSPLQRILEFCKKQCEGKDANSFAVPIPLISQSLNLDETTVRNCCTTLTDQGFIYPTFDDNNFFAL
3xFlag-Rfa2^ΔWH: residues 1-202 of P26754
UniProt P22336: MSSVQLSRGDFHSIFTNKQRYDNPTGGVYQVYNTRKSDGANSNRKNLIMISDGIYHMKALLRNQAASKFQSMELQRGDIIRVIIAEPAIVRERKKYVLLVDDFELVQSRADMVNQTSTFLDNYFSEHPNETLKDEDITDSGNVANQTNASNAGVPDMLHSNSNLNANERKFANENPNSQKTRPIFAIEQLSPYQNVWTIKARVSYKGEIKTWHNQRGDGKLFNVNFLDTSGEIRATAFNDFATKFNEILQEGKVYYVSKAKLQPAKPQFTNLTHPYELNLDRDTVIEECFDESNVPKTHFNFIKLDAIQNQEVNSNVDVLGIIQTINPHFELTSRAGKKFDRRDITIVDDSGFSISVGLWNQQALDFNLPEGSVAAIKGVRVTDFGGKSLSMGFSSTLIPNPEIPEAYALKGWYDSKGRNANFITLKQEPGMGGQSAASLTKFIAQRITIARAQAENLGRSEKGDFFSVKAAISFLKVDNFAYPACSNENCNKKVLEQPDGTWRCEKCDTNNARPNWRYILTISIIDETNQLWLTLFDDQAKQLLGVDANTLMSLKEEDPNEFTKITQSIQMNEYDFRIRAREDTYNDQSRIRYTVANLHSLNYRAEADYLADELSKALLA
UniProt P26755: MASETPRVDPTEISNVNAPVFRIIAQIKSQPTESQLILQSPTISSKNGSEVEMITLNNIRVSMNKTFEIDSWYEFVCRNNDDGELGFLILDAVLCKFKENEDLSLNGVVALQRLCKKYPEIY

What was measured:
[1] = biological target: 3xFlag-Rfa2^ΔWH (S. cerevisiae) (UniProt P26754); experiment: co-purification + SEC; subunits co-expressed in yeast (yAP17); lysate bound to Flag resin through 3xFlag-Rfa2^ΔWH in Buffer C with 100 mM NaCl, eluted with 3xFlag peptide, then S200 Increase 10/300 in Buffer C with 200 mM NaCl and 1 mM EDTA
[2] = biological target: 3xFlag-Rfa2^ΔWH (S. cerevisiae) (UniProt P26754); experiment: co-purification; subunits co-expressed in yeast (yAP18); calmodulin column, then Flag affinity step, then heparin column
[3] = biological target: CBP-Rfa1^ΔOB-F (S. cerevisiae) (UniProt P22336); experiment: co-purification; subunits co-expressed in yeast; lysate in Buffer C with 500 mM NaCl plus 2 mM CaCl2 bound to a calmodulin-affinity column through CBP-Rfa1, eluted with EDTA/EGTA, then HiTrap Heparin with a gradient from 50 mM to 1 M NaCl
[4] = biological target: CBP-Rfa1 (largest subunit of replication protein A) (S. cerevisiae) (UniProt P22336); experiment: as above

| binding [1] | binding [2] | binding [3] | binding [4] | Substance |
| --- | --- | --- | --- | --- |
| binds | – | – | – | CBP-Rfa1 (largest subunit of replication protein A) (from UniProt P22336 1-621) |
| – | binds | – | – | CBP-Rfa1^ΔOB-F (from UniProt P22336 131-621) (domain or fragment) |
| – | – | binds | binds | Rfa2 (middle subunit of replication protein A) (from UniProt P26754 1-273) |
| binds | binds | binds | binds | Rfa3 (smallest subunit of replication protein A), made in yeast (from UniProt P26755 1-122) |
